These are yes or no findings as the source states them, for the method shown. Some entries that bind do so weakly or less than the wild type.
Columns and labels:
Assay in all cases: ELISA
[1] = biological target: fibroblast growth factor (FGF)-18 (UniProt O76093)
CXCL-12γ = CXCL-12γ (UniProt P48061)
[2] = biological target: β-nerve growth factor (NGF) (UniProt P01138)
[3] = biological target: T1, fibroblast growth factor (FGF)-10 (UniProt O15520)
T1 sequence: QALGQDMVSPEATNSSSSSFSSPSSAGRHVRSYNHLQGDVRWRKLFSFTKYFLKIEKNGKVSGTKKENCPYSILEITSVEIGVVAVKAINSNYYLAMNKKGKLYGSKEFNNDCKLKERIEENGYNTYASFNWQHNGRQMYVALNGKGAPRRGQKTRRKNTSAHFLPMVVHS

Amino acid sequences for entries named in this document (tags omitted). A change or cut given only in a name is not applied to a line headed by its entry. Chains listed by the source or under a name are the forms on record and can include a tag or linker. Residues count along the entry.
UniProt O76093, residues 28-207: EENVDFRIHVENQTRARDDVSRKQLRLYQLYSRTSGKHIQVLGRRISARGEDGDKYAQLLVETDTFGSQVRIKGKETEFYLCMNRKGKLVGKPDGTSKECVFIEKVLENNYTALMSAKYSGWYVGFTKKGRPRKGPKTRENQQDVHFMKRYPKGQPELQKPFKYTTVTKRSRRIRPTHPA
C-X-C motif ligand (CXCL)-12α (P48061, residues 22-89): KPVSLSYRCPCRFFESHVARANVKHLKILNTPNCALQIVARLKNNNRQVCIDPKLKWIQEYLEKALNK
CXCL-12γ (P48061, form named): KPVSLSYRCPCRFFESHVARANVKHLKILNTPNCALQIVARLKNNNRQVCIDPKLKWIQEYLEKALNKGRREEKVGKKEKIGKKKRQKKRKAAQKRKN
UniProt P01138, residues 122-241: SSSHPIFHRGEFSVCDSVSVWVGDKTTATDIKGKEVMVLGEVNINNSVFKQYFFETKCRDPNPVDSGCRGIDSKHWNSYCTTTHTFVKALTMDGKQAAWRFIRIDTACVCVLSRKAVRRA
UniProt P18075, residues 293-431: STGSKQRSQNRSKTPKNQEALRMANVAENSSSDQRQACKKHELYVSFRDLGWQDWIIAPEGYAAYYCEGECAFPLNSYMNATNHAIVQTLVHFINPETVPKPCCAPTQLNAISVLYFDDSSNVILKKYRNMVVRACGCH
UniProt P05019, residues 49-118: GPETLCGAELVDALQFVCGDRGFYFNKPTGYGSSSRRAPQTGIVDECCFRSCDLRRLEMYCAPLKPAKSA
UniProt Q99075, residues 63-148: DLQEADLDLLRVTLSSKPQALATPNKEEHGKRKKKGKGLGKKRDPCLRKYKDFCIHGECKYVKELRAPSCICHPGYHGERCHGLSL
UniProt P05230, residues 16-155: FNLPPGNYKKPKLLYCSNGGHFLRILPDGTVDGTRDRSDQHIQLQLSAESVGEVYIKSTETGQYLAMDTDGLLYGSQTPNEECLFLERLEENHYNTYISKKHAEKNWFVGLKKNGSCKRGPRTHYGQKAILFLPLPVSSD
UniProt Q16363: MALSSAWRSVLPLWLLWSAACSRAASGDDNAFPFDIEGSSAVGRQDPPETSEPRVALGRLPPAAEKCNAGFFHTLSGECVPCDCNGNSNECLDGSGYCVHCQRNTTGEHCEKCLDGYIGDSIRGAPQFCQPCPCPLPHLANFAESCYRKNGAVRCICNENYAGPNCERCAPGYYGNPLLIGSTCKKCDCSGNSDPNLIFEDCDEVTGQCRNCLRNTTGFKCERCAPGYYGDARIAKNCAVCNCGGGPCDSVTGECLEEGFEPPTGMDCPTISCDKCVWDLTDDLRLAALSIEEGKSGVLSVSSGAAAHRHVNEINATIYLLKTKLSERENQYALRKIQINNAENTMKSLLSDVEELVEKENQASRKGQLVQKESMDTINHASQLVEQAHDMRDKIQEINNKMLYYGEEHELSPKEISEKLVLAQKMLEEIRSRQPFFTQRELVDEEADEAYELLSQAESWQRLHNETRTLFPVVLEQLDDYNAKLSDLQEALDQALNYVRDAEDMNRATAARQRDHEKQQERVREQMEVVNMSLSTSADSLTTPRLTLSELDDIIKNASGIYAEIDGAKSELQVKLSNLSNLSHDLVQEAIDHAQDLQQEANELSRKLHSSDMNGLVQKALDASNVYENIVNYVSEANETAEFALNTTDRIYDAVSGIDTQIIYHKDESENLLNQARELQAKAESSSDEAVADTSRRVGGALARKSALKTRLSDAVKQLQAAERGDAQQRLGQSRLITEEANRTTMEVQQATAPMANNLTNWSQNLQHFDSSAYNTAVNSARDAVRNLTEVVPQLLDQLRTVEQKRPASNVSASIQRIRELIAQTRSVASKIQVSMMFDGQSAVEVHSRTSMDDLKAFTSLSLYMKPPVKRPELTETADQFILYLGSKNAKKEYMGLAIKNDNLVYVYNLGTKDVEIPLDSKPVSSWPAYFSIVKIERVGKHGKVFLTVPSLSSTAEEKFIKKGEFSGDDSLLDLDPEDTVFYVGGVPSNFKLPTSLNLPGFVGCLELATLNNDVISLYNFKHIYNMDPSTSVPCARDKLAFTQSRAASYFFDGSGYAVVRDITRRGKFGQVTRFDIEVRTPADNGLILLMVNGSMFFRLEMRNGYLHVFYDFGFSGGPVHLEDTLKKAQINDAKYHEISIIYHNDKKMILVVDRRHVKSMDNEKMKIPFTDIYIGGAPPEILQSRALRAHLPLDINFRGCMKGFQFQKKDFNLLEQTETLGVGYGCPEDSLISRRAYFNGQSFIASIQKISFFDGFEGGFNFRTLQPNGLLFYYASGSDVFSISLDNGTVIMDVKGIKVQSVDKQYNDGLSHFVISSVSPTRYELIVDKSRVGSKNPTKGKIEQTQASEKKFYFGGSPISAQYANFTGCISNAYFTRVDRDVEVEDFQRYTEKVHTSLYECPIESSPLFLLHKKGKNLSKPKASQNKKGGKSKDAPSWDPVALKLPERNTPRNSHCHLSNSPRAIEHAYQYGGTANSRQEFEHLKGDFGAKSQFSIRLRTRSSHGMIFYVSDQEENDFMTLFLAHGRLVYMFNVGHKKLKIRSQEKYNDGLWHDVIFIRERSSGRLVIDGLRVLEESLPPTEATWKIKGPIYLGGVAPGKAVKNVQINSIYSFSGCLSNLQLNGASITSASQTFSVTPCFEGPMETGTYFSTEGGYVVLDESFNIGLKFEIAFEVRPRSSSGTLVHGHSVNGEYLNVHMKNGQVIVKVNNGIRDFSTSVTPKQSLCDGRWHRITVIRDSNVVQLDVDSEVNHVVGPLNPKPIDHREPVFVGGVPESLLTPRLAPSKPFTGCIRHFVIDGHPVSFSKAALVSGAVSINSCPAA
UniProt O15230: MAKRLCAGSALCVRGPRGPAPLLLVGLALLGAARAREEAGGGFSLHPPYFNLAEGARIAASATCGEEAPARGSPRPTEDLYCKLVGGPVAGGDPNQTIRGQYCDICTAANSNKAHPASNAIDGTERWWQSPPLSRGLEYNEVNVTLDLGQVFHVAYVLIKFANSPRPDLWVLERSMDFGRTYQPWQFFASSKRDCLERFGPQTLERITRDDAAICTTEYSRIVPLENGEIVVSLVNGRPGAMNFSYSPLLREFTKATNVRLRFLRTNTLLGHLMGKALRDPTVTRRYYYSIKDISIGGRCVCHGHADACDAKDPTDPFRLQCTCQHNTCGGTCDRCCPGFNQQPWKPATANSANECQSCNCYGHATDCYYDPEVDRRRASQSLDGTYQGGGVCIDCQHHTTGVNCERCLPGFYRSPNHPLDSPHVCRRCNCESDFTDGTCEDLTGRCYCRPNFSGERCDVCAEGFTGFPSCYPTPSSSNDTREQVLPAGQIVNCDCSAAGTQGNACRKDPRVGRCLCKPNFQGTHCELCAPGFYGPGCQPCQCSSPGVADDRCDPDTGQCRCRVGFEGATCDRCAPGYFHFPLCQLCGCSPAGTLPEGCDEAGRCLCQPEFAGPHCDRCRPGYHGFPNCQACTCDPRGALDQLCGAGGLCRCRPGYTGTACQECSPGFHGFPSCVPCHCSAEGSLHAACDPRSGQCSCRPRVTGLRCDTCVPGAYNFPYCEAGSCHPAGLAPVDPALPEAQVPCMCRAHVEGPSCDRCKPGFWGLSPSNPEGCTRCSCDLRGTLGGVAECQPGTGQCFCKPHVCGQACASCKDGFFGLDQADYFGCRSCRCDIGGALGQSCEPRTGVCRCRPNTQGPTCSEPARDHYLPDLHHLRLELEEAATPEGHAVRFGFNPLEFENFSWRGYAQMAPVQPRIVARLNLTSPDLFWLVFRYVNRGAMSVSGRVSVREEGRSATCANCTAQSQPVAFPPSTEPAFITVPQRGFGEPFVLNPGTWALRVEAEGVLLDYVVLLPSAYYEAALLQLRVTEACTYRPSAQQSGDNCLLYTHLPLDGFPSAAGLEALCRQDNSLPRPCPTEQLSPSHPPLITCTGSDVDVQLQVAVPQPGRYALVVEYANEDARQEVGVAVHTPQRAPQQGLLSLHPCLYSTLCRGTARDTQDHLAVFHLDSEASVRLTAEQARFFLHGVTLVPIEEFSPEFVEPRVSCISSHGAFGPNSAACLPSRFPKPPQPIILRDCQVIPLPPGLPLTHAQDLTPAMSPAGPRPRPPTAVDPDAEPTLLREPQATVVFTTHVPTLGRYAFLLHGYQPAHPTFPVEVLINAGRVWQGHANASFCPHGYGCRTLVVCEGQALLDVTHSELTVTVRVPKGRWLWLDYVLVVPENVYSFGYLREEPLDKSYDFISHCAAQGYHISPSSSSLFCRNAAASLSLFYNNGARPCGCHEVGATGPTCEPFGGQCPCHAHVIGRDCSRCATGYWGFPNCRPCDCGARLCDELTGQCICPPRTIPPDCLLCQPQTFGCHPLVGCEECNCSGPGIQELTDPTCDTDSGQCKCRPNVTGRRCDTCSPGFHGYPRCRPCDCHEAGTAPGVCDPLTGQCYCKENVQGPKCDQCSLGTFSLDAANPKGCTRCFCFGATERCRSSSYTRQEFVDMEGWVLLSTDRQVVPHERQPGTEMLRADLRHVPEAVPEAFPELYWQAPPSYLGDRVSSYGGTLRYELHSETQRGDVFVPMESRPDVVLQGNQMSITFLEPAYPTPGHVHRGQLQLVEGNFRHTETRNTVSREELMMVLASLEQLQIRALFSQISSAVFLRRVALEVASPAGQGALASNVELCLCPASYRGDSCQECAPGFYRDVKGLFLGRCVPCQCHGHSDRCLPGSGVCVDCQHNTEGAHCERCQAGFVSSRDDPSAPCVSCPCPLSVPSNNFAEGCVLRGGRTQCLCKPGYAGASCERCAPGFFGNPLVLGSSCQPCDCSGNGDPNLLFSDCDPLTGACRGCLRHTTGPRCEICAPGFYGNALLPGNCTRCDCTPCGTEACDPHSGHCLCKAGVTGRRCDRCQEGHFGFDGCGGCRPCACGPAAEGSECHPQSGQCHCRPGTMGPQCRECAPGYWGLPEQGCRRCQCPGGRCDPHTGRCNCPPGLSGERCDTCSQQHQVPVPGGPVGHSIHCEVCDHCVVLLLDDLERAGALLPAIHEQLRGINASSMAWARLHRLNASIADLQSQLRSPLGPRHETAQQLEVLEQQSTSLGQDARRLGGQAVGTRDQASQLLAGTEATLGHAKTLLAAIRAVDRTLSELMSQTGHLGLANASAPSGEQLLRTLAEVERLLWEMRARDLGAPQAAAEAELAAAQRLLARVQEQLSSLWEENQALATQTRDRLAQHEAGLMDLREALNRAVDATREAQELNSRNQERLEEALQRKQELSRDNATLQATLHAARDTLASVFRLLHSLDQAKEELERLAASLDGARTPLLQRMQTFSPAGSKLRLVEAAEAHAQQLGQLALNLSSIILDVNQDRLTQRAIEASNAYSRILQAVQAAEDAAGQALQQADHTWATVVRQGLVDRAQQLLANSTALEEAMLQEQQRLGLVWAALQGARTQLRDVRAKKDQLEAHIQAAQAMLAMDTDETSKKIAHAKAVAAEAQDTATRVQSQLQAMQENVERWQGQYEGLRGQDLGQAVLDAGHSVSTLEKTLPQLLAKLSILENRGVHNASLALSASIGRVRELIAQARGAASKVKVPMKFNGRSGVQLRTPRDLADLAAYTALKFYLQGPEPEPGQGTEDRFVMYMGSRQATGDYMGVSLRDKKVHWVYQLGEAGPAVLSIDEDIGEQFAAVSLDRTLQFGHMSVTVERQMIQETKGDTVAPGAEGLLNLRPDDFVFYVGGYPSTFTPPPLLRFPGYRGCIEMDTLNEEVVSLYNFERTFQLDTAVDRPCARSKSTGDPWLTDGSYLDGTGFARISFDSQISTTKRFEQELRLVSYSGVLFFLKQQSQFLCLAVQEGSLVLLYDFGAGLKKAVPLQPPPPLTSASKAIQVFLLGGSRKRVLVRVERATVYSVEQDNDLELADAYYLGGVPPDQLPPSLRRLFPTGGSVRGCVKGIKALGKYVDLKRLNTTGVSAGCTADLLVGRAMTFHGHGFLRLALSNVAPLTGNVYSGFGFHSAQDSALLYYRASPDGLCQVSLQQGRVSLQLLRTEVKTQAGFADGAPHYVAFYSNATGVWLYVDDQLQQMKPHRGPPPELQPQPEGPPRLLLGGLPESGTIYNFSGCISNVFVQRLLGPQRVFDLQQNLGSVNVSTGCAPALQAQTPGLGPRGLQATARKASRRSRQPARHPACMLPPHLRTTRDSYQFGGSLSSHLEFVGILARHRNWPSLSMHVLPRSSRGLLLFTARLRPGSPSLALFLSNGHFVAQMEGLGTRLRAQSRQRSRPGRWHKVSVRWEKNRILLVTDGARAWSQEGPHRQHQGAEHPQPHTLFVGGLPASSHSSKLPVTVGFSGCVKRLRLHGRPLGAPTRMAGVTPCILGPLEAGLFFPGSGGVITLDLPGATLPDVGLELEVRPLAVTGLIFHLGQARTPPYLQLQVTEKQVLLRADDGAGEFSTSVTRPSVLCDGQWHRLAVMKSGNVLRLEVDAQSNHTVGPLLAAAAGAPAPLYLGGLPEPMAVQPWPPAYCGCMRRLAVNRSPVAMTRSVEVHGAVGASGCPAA

[4] = biological target: bone morphogenetic protein (BMP)-7 (UniProt P18075)
[5] = biological target: insulin-like growth factor (IGF)-1 (UniProt P05019)
[6] = biological target: T2, fibroblast growth factor (FGF)-7 (UniProt P21781)
T2 sequence: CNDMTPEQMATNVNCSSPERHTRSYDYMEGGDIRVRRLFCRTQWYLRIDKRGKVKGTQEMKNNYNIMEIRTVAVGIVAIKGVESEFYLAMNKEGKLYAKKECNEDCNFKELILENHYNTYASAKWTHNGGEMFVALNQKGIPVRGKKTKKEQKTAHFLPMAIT

[7] = biological target: T3, C-X-C motif ligand (CXCL)-11 (UniProt O14625)
T3 sequence: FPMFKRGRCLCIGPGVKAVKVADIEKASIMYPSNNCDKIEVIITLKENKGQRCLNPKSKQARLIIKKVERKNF

[8] = biological target: T4, bone morphogenetic protein (BMP)-4 (UniProt P12644)
T4 sequence: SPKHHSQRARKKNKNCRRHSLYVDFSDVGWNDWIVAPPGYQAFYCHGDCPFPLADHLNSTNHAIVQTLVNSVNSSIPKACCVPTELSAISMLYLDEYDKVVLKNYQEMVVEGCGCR

[9] = biological target: T5, bone morphogenetic protein (BMP)-3 (UniProt P12645)
T5 sequence: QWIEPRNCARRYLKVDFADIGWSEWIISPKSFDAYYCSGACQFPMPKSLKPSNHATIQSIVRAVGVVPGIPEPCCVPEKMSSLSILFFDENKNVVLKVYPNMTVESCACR

[10] = biological target: T6, bone morphogenetic protein (BMP)-2 (UniProt P12643)
T6 sequence: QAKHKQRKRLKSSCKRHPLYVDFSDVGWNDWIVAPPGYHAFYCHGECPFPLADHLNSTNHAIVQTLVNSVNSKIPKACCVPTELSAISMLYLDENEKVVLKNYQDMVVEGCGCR

[11] = biological target: C-X-C motif ligand (CXCL)-12α (UniProt P48061)
neurotrophin (NT)-3 = biological target: T7, neurotrophin (NT)-3 (UniProt P20783)
T7 sequence: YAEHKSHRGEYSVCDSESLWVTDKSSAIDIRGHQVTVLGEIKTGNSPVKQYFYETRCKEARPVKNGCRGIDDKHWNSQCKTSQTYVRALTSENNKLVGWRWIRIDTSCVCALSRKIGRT

[12] = biological target: T8, fibroblast growth factor (FGF)-6 (UniProt P10767)
T8 sequence: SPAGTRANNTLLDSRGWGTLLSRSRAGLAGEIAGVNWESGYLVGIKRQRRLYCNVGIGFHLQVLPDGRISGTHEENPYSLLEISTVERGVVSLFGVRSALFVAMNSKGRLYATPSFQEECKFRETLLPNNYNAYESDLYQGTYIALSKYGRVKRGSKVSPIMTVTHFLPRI

[13] = biological target: T9, placental growth factor (PlGF)-1 (human) (UniProt P49763)
T9 sequence: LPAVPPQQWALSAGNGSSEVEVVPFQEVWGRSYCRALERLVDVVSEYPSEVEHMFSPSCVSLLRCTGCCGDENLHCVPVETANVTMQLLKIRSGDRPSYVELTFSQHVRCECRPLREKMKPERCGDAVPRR

[14] = biological target: heparin-binding epidermal growth factor (HB-EGF) (UniProt Q99075)
[15] = biological target: fibroblast growth factor (FGF)-1 (UniProt P05230)

Substance	binding [1]	binding (CXCL-12γ)	binding [2]	binding [3]	binding [4]	binding [5]	binding [6]	binding [7]	binding [8]	binding [9]	binding [10]	binding [11]	binding (neurotrophin (NT)-3)	binding [12]	binding [13]	binding [14]	binding [15]
laminin-421 (from UniProt Q16363 25-1823; P55268 33-1798; P11047 34-1609) (complex)	binds	binds	binds weakly	binds	no binding (tested: 10 nM)	no binding (tested: 10 nM)	binds	no binding (tested: 10 nM)	no binding (tested: 10 nM)	binds	binds	no binding (tested: 10 nM)	binds	no binding (tested: 10 nM)	no binding (tested: 10 nM)	binds weakly	no binding (tested: 10 nM)
laminin-111 (from UniProt P25391 18-3075; P07942 22-1786; P11047 34-1609) (complex)	binds	binds	binds weakly	binds	no binding (tested: 10 nM)	no binding (tested: 10 nM)	binds	no binding (tested: 10 nM)	no binding (tested: 10 nM)	binds	binds	no binding (tested: 10 nM)	binds	no binding (tested: 10 nM)	no binding (tested: 10 nM)	binds weakly	no binding (tested: 10 nM)
laminin-411 (from UniProt Q16363 25-1823; P07942 22-1786; P11047 34-1609) (complex)	binds	binds	binds weakly	binds	no binding (tested: 10 nM)	no binding (tested: 10 nM)	binds	no binding (tested: 10 nM)	no binding (tested: 10 nM)	binds	binds	no binding (tested: 10 nM)	binds	no binding (tested: 10 nM)	no binding (tested: 10 nM)	binds weakly	no binding (tested: 10 nM)
laminin-211 (from UniProt P24043 23-3122; P07942 22-1786; P11047 34-1609) (complex)	binds	binds	binds weakly	binds	no binding (tested: 10 nM)	no binding (tested: 10 nM)	binds	no binding (tested: 10 nM)	no binding (tested: 10 nM)	binds	binds	no binding (tested: 10 nM)	binds	no binding (tested: 10 nM)	no binding (tested: 10 nM)	binds weakly	no binding (tested: 10 nM)
laminin-521 (from UniProt O15230 36-3695; P55268 33-1798; P11047 34-1609) (complex)	binds	binds	binds weakly	binds	no binding (tested: 10 nM)	no binding (tested: 10 nM)	binds	no binding (tested: 10 nM)	no binding (tested: 10 nM)	binds	binds	no binding (tested: 10 nM)	binds	no binding (tested: 10 nM)	no binding (tested: 10 nM)	binds weakly	no binding (tested: 10 nM)
laminin-511 (from UniProt O15230 36-3695; P07942 22-1786; P11047 34-1609) (complex)	binds	binds	binds weakly	binds	no binding (tested: 10 nM)	no binding (tested: 10 nM)	binds	no binding (tested: 10 nM)	no binding (tested: 10 nM)	binds	binds	no binding (tested: 10 nM)	binds	no binding (tested: 10 nM)	no binding (tested: 10 nM)	binds weakly	no binding (tested: 10 nM)
